32 compounds from the supplement of paper PMC12425257 can be followed below.

The subject of the experiment is Madurella mycetomatis MM55. In words: metabolic activity (growth) relative to DMSO growth control; higher = more fungal growth.

± gives the standard deviation of the averaged measurements. The list shows a part of the results.

Take `NC(=O)c1c(Nc2ccc(I)cc2F)cc(F)cc1Oc1cccc(NS(N)(=O)=O)c1`: the metabolic activity is, setting by setting: (1 µM) 95.1 ± 17%; (2 µM) 104 ± 15%; (10 µM) 107 ± 57%.
With `CCc1nc(-c2cccc(C)c2)c(-c2ccncc2)s1`, the metabolic activity runs as follows: (1 µM) 92.1 ± 20%; (2 µM) 80.6 ± 2.1%; (4 µM) 43.9 ± 40%; (8 µM) 32.8 ± 33%; (10 µM) 7.42 ± 1.7%.
In the case of `COc1cc(N2CCN(C)CC2)ccc1Nc1ncc(Cl)c(Oc2cccc(NC(=O)C3CC3)c2)n1`, the metabolic activity was found to be 106 ± 7.2% (1 µM), 89.4 ± 17% (2 µM) and 77.1 ± 12% (10 µM).
For `CC(C)c1cc(-c2ccc3c(N)n[nH]c3c2)nc(N)n1`, the metabolic activity runs as follows: (1 µM) 86.9 ± 12%; (2 µM) 93.2 ± 25%; (10 µM) 117 ± 7.7%.
Regarding `CN(C)C/C=C/C(=O)Nc1ccc(C(=O)N2CCC[C@@H](Nc3ncc(Cl)c(-c4c[nH]c5ccccc45)n3)C2)cc1`, the metabolic activity was 99.9 ± 25% (1 µM), 66.9 ± 8.1% (2 µM) and 93 ± 8.8% (10 µM).
Take `Cc1cccc(-c2nc(Nc3ccncc3)c3ccccc3n2)n1`: the metabolic activity (1 µM) stood at 83.9 ± 14%; the metabolic activity (2 µM) is 74.6 ± 10%; the metabolic activity (4 µM) is 198 ± 70%; the metabolic activity (8 µM) came to 48.9 ± 21%; the metabolic activity (10 µM) was 15.6 ± 3.7%.
Turning to `Fc1ccc(-c2nn3ccccc3c2-c2ccncc2)cc1`, the metabolic activity is, setting by setting: (1 µM) 64.3 ± 19%; (2 µM) 67.2 ± 16%; (4 µM) 43.2 ± 28%; (8 µM) 2.88 ± 4.4%; (10 µM) 6.51 ± 0.53%.
`CC(C)Nc1ncnc2cc(OCc3cccc(S(C)(=N)=O)c3)c(Br)cc12` (stereo not drawn): the metabolic activity (1 µM) stood at 117 ± 17%, the metabolic activity (2 µM) was 74.5 ± 4.2% and the metabolic activity (10 µM) was found to be 108 ± 1.1%.
Consider `CCCc1cc(N2CCCN(C)CC2)nc2sc3c(N)ncnc3c12`, for which the metabolic activity (1 µM) came out at 87.6 ± 15%, the metabolic activity (2 µM) is 79.3 ± 6.3% and the metabolic activity (10 µM) is 90.1 ± 25%.
On to `NCC1CNC(=O)c2cc3ccc(C(=O)Nc4cccnc4)cc3n2C1` (stereo not drawn), for which the metabolic activity (1 µM) came to 107 ± 36%, the metabolic activity (2 µM) stood at 98.8 ± 22% and the metabolic activity (10 µM) was determined as 105 ± 2.1%.
On to `CC(C)S(=O)(=O)c1ccc2nccc(Nc3ccc4scnc4c3)c2c1`, for which the metabolic activity is, setting by setting: (1 µM) 107 ± 1.1%; (2 µM) 67.6 ± 8.2%; (10 µM) 77.8 ± 9.6%.
Regarding `CCN(CC)S(=O)(=O)c1cc(Nc2nccc(-c3ccnc(-c4ccc(NC(=O)NC)cc4)c3)n2)ccc1Cl`, the metabolic activity stood at 103 ± 3.9% (1 µM), 105 ± 7% (2 µM) and 97.3 ± 11% (10 µM).
Take `Cn1ccc(-c2cccc(Nc3ccnc4cc(-c5nccs5)ccc34)c2)n1`: the metabolic activity is, setting by setting: (1 µM) 92.4 ± 2.5%; (2 µM) 90.9 ± 5.1%; (10 µM) 90.3 ± 1.8%.
As for `O=C(Nc1n[nH]c2cc(-c3ccsc3)ccc12)C1CC1`, the metabolic activity runs as follows: (1 µM) 114 ± 8.7%; (2 µM) 108 ± 5.6%; (10 µM) 130 ± 31%.
For `O=C(Nc1n[nH]c2nc(-c3ccccc3)c(Br)cc12)C1CC1`, the metabolic activity amounted to 99.2 ± 10% (1 µM), 106 ± 12% (2 µM) and 134 ± 3.9% (10 µM).
Take `CCCS(=O)(=O)Nc1ccc(F)c(C(=O)c2c[nH]c3ncc(Cl)cc23)c1F`: the metabolic activity is, setting by setting: (1 µM) 109 ± 18%; (2 µM) 103 ± 26%; (10 µM) 78.8 ± 26%.
Take `NC(=O)c1c(Oc2ccc(F)c(NS(N)(=O)=O)c2)cc(F)c(F)c1Nc1ccc(I)cc1F`: the metabolic activity was 92.6 ± 1.3% (1 µM), 69.2 ± 3.1% (2 µM) and 110 ± 16% (10 µM).
Consider `Cc1cccc(-c2nc3cnccn3c2-c2ccnc(NC3CCCCC3)n2)c1`, for which the metabolic activity came out at 90.7 ± 5.8% (1 µM); 109 ± 14% (2 µM); 177 ± 83% (4 µM); 48.6 ± 11% (8 µM); 5.8 ± 0.78% (10 µM).
Regarding `CN(C)Cc1nc2c(sc3ccc(-c4ccc(OCCCN)cc4)cc32)c(=O)[nH]1`, the metabolic activity reads like this: (1 µM) 107 ± 3.8%; (2 µM) 62.6 ± 38%; (10 µM) 78.7 ± 8.6%.
In the case of `CS(=O)(=O)c1ccc(-c2cnc(N)c(C(=O)Nc3ccccc3)n2)cc1`, the metabolic activity worked out at 107 ± 4% (1 µM), 112 ± 18% (2 µM) and 96.5 ± 5.2% (10 µM).
The corresponding values for `COc1cc(Nc2nccc(N3CCC(NC(=O)C4COc5ccccc5O4)C3)n2)cc(OC)c1OC` (stereo not drawn) are 103 ± 28%, 105 ± 10% and 112 ± 9.8%.
With `COc1ccc(-c2cc3c(C)nc(N)nc3n([C@H]3CC[C@H](OCCO)CC3)c2=O)cn1`, the metabolic activity runs as follows: (1 µM) 97.5 ± 14%; (2 µM) 84.5 ± 25%; (10 µM) 108 ± 25%.
In the case of `Nc1nccc(-c2c(-c3ccc(F)cc3)ncn2C2CCN(Cc3ccccc3)CC2)n1`, the metabolic activity is 97.3 ± 15% (1 µM); 72.1 ± 6.9% (2 µM); 82.3 ± 20% (4 µM); 14.6 ± 0.51% (8 µM); 30.8 ± 31% (10 µM).
Take `COc1cc2ncn(-c3cc(OCc4ccncc4)c(C(N)=O)s3)c2cc1OC`: the metabolic activity reads like this: (1 µM) 92.2 ± 8.6%; (2 µM) 103 ± 27%; (10 µM) 99.2 ± 21%.
The corresponding values for `CNc1nc(Nc2ccc(C(=O)N3CCOCC3)cc2OC)ncc1Cl` are 85.4 ± 18%, 73.5 ± 0.92% and 119 ± 3.6%.
Turning to `COc1ccc(COc2ccc(Cc3cnc(N)nc3N)cc2OC)cc1`, the metabolic activity (1 µM) worked out at 89.4 ± 20%, the metabolic activity (2 µM) amounted to 74.4 ± 5.8% and the metabolic activity (10 µM) is 78.5 ± 35%.
The like results for `COc1cccc(-c2cc3ncnc(SCC(=O)O)c3s2)c1` were, in that order, 106 ± 16%, 94.7 ± 23% and 95.9 ± 18%.
Consider `CCn1c(-c2nonc2N)nc2cncc(C(=O)N3CC[C@H](N)C3)c21.Cl`, for which the metabolic activity (1 µM) worked out at 124 ± 35%, the metabolic activity (2 µM) turned out to be 116 ± 8.7% and the metabolic activity (10 µM) was determined as 111 ± 3.9%.
For `Cc1cccc(NC(=O)Nc2ccc(-c3cnc4c(Br)cnn4c3N)cc2)c1`, the metabolic activity stood at 117 ± 14% (1 µM), 109 ± 1.5% (2 µM) and 97.7 ± 3.8% (10 µM).
The like results for `NC(=O)c1c(Oc2cccc(CNS(N)(=O)=O)c2)cc(F)c(F)c1Nc1ccc(I)cc1F` were, in that order, 102 ± 9.4%, 118 ± 3.2% and 118 ± 13%.
For `CNC(=O)c1nn(C)c2c1C(C)(C)Cc1cnc(Nc3ccc(N4CCOCC4)cc3OC)nc1-2`, the metabolic activity runs as follows: (1 µM) 101.2 ± 0.42%; (2 µM) 131 ± 44%; (4 µM) 115 ± 16%; (8 µM) 48.6 ± 23%; (10 µM) 11.7 ± 1.6%.
For the compound `NC[C@H](NC(=O)c1ccc(-c2ccncc2)cc1)c1ccccc1`, the metabolic activity is, setting by setting: (1 µM) 90.2 ± 20%; (2 µM) 90.3 ± 15%; (10 µM) 117 ± 37%.
